The values below come from PubChem BioAssay AID1508600 (Functional Genomics Laboratory (NCATS/FGL), 2020).

Out of some 53,000 sequences screened, about 3,700 (7%) were called active.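 How the source made its calls: active means gene knockdowns whose robust z-score for IL-1 alpha signal is at least 2 or at most -2, so actives lie on both sides; inactive means the rest.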 Some of the results follow.

The nature of the test: Components of the Cytosolic LPS Sensing Pathway: Gene Identification via Genome-wide siRNA Screen.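 Further: robust z of the log signal after scaling to non-targeting control siRNA wells of the plate.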 Conditions: RAW264.7 macrophages, IL-1a HTRF, actives lie on both sides, screened at 100 nM (by protocol), cells primed 5 h with Pam3CSK4 first. The procedure, abridged:
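RAW264.7 mouse macrophages reverse-transfected with single siRNAs (100 nM final) for 48h, primed with Pam3CSK4 for 5 hours, then transfected with LipidA for 24 hour. Supernatant IL-1a read by HTRF; values normalized to negative-control median, log-transformed robust z-scores.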
Turning to GGCAUAAAGUUGUUUACAGTT against Zfp706, the z-score was inactive: -0.401.

For the sequence GGUGUCUGUGCCUAUCAUCTT against Slc34a3, the z-score is inactive: 0.017.

Take GGGAACUUUCCUCAAGUCUTT against Phactr3: the z-score was inactive: 0.107.

With GGGUAUUUCCUGGUGGAUUTT against Mrps6, the z-score was inactive: 0.221.

Regarding GGUCAUCAACCAAUUCCAGTT against Tmem127, the z-score is inactive: 0.17.

Take GGUGCAAAGACAAGUUAAATT against Shh: the z-score was inactive: 0.482.

Regarding GGUCAUCUUUCCAGUCAGCTT against Naa50, the z-score was inactive: -0.664.

As to GGCAGGUGAAUGUGGUAGATT against Btbd17, the z-score is inactive: 0.165.

With GGCUUACUUCAUUUCAGUUTT against Zfp526, the z-score is inactive: 0.0808.

On to GGUUUCAUGUGACUUUUAUTT against Tg, for which the z-score is inactive: -0.397.

As for GGUUUUUGCUGAGUCUUGCTT against Olfr299, the z-score was inactive: 0.00611.

On to CCUCUCUACUACAGACCUUTT against Olfr1058, for which the z-score was inactive: -0.471.

With ACCUGUUGAGCAAAGAAUGTT against Cst8, the z-score was inactive: -0.0192.

For the sequence GCGCAUAUGGCUACGUUCATT against Rnf182, the z-score was inactive: -0.2.

For CCAAGCCCACAACGAUCGUTT against Triobp, the z-score was inactive: -0.0386.

For GGUUCACAGAAAUUGAGGUTT against Calhm2, the z-score is inactive: -0.992.

CGAGAAAAUGGAUUCUACCTT against Atp10d: the z-score is inactive: 0.314.

On to GGAUGAUGCCGUGUAUGAGTT against Kirrel3, for which the z-score is inactive: 1.43.

Consider GUGGGAAUUCUGAAAAAUATT against Vmn1r231, for which the z-score is inactive: 0.301.

For GGUUUUUAACAAGCUAAUCTT against Bzw1, the z-score is inactive: 1.51.

In the case of GCUUUGACUUGAAACAAAATT against LOC574530, the z-score is inactive: -0.969.

On to GCACUGCUGUCUAUAUUCATT against Olfr117, for which the z-score is inactive: 0.476.

On to GCACCAGGAGUUACCUGUATT against Tex2, for which the z-score is inactive: -0.12.

Consider GGUGCUCAGCAUGUUUGCUTT against Avpr1b, for which the z-score is inactive: -1.06.

For GGAUUAAAUCCGAAAAGCUTT against Tmem51, the z-score is active: -2.36.

Turning to GCAACUUGUGCCUCUGCUATT against Dhh, the z-score was inactive: 1.17.

In the case of CCAUGUCAAGCGGAUAGCATT against Mc5r, the z-score is inactive: -0.4.

As for ACCAGUAUGGCUUAAAGACTT against Bglap3, the z-score was inactive: -0.653.

With GGCUGUCUUACAAUGUAAUTT against Gabrb2, the z-score is inactive: -0.638.

Turning to GAAGAUUCUCCAUUGUUUGTT against Lce1e, the z-score is inactive: 1.16.

In the case of GGUCAUGAGAUCAGCCCUUTT against Adh5, the z-score is inactive: -0.167.

Consider GGUGGUCACCUAUUCAUGUTT against Cd55, for which the z-score is inactive: 0.114.

As to CCAUCUGCAUCAAGAGAAATT against Kirrel2, the z-score was inactive: 0.709.

On to GGGUCAAAGUCAGACUAUGTT against Cnpy4, for which the z-score was inactive: -0.599.

CGGUUAGACAGUGCACCAATT against Dnm1: the z-score was inactive: 0.4.

For the sequence CGAGAGUGGGUGGGUUGAATT against Zfp950, the z-score is inactive: 0.628.

In the case of GGACAAUAGAUGUGUUUGATT against Ddb2, the z-score was inactive: 1.57.

Regarding CCUAACUUCACCAUAAUCATT against Xrn2, the z-score was inactive: 0.759.

GGUCAAAAUGUCUUUGGAATT against Rgs1: the z-score was inactive: -1.63.

CCUCCAUUAACUAUGUUAGTT against Chd1l: the z-score is inactive: -0.16.

With GGAGGAUGGAAAGAUAAAATT against Slc25a27, the z-score is inactive: -1.18.

In the case of GGUGAUGGAGAAGAGAAGATT against Fam107b, the z-score was active: 2.88.

Take GGUUAAAAGCAUCUCUAAGTT against Cd8b1: the z-score was inactive: 0.137.

For the sequence ACUACAUUACCAGAAGACATT against Olfr1178, the z-score was inactive: 1.5.

As to GCCUUGAACCUUCACACCUTT against Ccl8, the z-score is inactive: -0.941.

With GCGAAGUCAUCAAAUUUUCTT against Abcb11, the z-score was inactive: 0.622.

With GGGAGGAGAUUAUUUCUAUTT against Nmnat2, the z-score is inactive: -0.228.

As for GCCUUCAAGCCAAAGAUAGTT against Lin54, the z-score was inactive: -0.582.

Turning to GGGUUUACUUCUCAGACAGTT against Cfap20, the z-score was inactive: 0.175.

GGGACCUGACCUUACUCAUTT against Shisa4: the z-score was inactive: -1.77.

On to GGCUCCUUAAAGAUAUGUUTT against Nsmaf, for which the z-score was inactive: 1.07.

Regarding GGUGAAGGCUUACCAGAUUTT against Oog1, the z-score is inactive: 0.894.

In the case of GGUUUGUGGAUGACAACGGTT against Mtf1, the z-score was inactive: 0.216.

Regarding GGCCUAACCUCCAAAAGUATT against Xpo4, the z-score is inactive: 0.307.

For CCACAAGUUCACUAAGGAGTT against Six3, the z-score was inactive: 0.193.

As for GCAGUGCUCUUUAGCAUAATT against Zfp689, the z-score is inactive: 1.01.

On to GGUGUCCUAUGAUUACAGCTT against Fam181b, for which the z-score was inactive: 1.13.

Regarding GCCACAUUCCGAAUACUCUTT against Disp1, the z-score was inactive: -0.957.

In the case of GGUUGUGUCAAUAAAAACATT against Dusp2, the z-score is inactive: 1.04.

In the case of GGUCAAGUCACUGGUGACGTT against Fabp3, the z-score was inactive: -1.73.

Turning to GGAUUAAUCAAACUGAGAGTT against Lrrtm2, the z-score is inactive: -1.24.

Turning to GGUUGUGGAAGCAAGUAUGTT against Slc22a30, the z-score was inactive: -0.498.

On to CUUUGAUGAUAUUGCUGCUTT against Olfr849, for which the z-score is inactive: 0.799.

For GGAUGAUGACGACAUUGAUTT against Eef1b2, the z-score is inactive: 0.292.

For CCUGGCAUAAGUGGUUUUATT against Zfp82, the z-score was inactive: 1.13.

In the case of GAAGCUGAGUAUCUAUGGUTT against Tmem59, the z-score is inactive: -0.962.

With GGAAUUAUCAGCGAUAAAGTT against Ska2, the z-score is inactive: 0.364.

GGUGCCAAUCAUUGUUAUGTT against Kcnv1: the z-score was inactive: 1.73.
